Laboratory results published in PubChem BioAssay AID540256 (National Center for Advancing Translational Sciences (NCATS), 2011).
The campaign covered roughly 300,000 compounds. About 3,700 (1.2%) were called active. The inconclusive results got no clear call from the source; some entries with a clear call stand among them for comparison. Calls follow the shape of the full dose curve; tested in HEK293 cells. Where the call is inconclusive, the potency comes from a doubtful curve fit.

Test: qHTS for Inhibitors of binding or entry into cells for Lassa Virus; also: nearly all actives have a fitted effect of over 50% in size
Conditions: Lassa virus pseudotype entry inhibition, cell reporter; activity change, negative = inhibition: at 37.9 µM (top of the series) unless noted
% is scaled to controls: 0 for no effect and ±100 for the full control effect; potency is read from the fitted curve at half-maximal effect.

SMILES | Potency | activity change, negative = inhibition
CCN(CC)C(=O)CSc1ncnc2c1nnn2-c1ccc(F)cc1 | inactive | –
COC(=O)c1ccc(/C=N/OCC(=O)NCc2ccc(F)cc2)cc1 | inactive | –
O=C(C1CCCN(S(=O)(=O)c2cccc3nsnc23)C1)N1CCN(c2ccccc2Cl)CC1 (configuration not stated) | inconclusive: 35.5 µM [inhibitor, single point] | –
COc1cc(-c2nnc(SCC3(c4ccc(Br)cc4)OCCO3)o2)cc(OC)c1OC | inconclusive: 12.6 µM [inhibitor, partial curve, poor fit] | –
Cc1ccc(-c2nnc3c4ccccc4c(C)nn23)cc1NC(=O)c1ccccc1Cl | inactive | –
COc1ccc(N2CCN(c3oc(COc4ccccc4)nc3C#N)CC2)cc1 | inconclusive: 14.1 µM [inhibitor, single point] | –
Cc1ccc(C)c(NC(=O)CSC2=Nc3ccccc3N=C(c3ccc(F)cc3)C2)c1 | inconclusive: 17.8 µM [activator, single point] | –
O=[N+]([O-])c1ccc(/C=C/c2ccc3ccccc3n2)cc1 | active: 2 µM | –
Clc1ccccc1/C=C/C=N/Nc1nc(N2CCOCC2)nc(N2CCOCC2)n1 | inconclusive: 31.6 µM [inhibitor, single point] | –
CCC(=O)N1CCc2cc(S(=O)(=O)NC(Cc3ccccc3)C(=O)Nc3cccc(OC)c3)ccc21 (configuration not stated) | inactive | –
O=S(=O)(Nc1ccc(N2CCOCC2)cc1)c1cc(Cl)ccc1Cl | – | inconclusive: 1.68% [activator]
O=C(c1cc(NC(=O)C23CC4CC(CC(C4)C2)C3)cc(NC(=O)C23CC4CC(CC(C4)C2)C3)c1)N1CCCCC1 | inconclusive: 29.1 µM [inhibitor, single point] | –
c1ccc(C(CN2CCCCC2)c2ccccc2)cc1 | inconclusive: 0.631 µM [inhibitor, single point] | –
O=C(NNC(=O)c1cccc2ccccc12)c1cccc(Cl)c1 | inconclusive: 35.5 µM [inhibitor, single point] | –
CCOc1cc(N2CCOCC2)c(OCC)cc1NC(=O)c1ccc(OCc2c(C)noc2C)c(OC)c1 | inconclusive: 8.91 µM [inhibitor, partial curve, poor fit] | –
CCCc1nnc(NC(=O)c2cc(=O)c3cc(Cl)ccc3o2)s1 | inactive | –
Cc1cc(C)c2[nH]c(=O)c(CN(CC3CCCO3)C(=S)NCc3ccco3)cc2c1 (configuration not stated) | inconclusive: 1.26 µM [inhibitor, single point] | –
Clc1cccc(Cl)c1/C=N/Nc1c(Cl)cncc1Cl | inconclusive: 0.891 µM [inhibitor, full curve, poor fit] | –
CC(C)Sc1ncnc2c1oc1ccccc12 | inactive | –
Cc1ccccc1N=C1NN=C(c2ccccc2F)CS1 | inconclusive: 23.1 µM [inhibitor, single point] | –
CCCS(=O)(=O)c1c(S(=O)(=O)CCC)c2c3ccccc3ccn2c1C(=O)OC | inconclusive: 29.1 µM [inhibitor, single point] | –
Cc1noc(C)c1COC(=O)c1cccc(S(=O)(=O)N2c3ccccc3CC2C)c1 (configuration not stated) | inconclusive: 29.1 µM [inhibitor, single point] | –
CCC(Oc1ccccc1OC)C(=O)Nc1ccc2c(c1)OCCO2 (configuration not stated) | inactive | –
Cc1ccccc1N1C(=O)NC(=O)/C(=C\c2cnn(-c3ccccc3)c2)C1=O | inactive | –

Exported tab-delimited: entries from further up.
SMILES	Potency	activity change, negative = inhibition
O=S(=O)(Nc1ccc(N2CCOCC2)cc1)c1cc(Cl)ccc1Cl	–	inconclusive: 1.68% [activator]
O=C(c1cc(NC(=O)C23CC4CC(CC(C4)C2)C3)cc(NC(=O)C23CC4CC(CC(C4)C2)C3)c1)N1CCCCC1	inconclusive: 29.1 µM [inhibitor, single point]	–
c1ccc(C(CN2CCCCC2)c2ccccc2)cc1	inconclusive: 0.631 µM [inhibitor, single point]	–
O=C(NNC(=O)c1cccc2ccccc12)c1cccc(Cl)c1	inconclusive: 35.5 µM [inhibitor, single point]	–

Later entries:

SMILES | Potency | activity change, negative = inhibition
CC(C(=O)Nc1ccc2c(c1)OCCO2)N(C)Cc1c(F)cccc1Cl (configuration not stated) | inconclusive: 35.5 µM [inhibitor, single point] | –
COCCCn1c(-c2ccsc2)nc2c1c(=O)[nH]c(=O)n2Cc1ccccc1 | inconclusive: 20.6 µM [inhibitor, single point] | –
COC(=O)c1c(NC(=O)Nc2ccc(Cl)cc2)sc(C)c1C | inconclusive: 22.4 µM [activator, single point] | –
COc1ccccc1/C=C(/C(=O)OCC(=O)Nc1ccccc1C)c1ccccc1 | inconclusive: 6.51 µM [inhibitor, partial curve] | –
CCC(=O)NC(c1ccc(C)cc1)c1cc([N+](=O)[O-])c2cccnc2c1O (configuration not stated) | inconclusive: 4.61 µM [inhibitor, partial curve, poor fit] | –
Cc1ccc(C2C(C#N)=C(N)SC(N)=C2C#N)cc1 | inactive | –
COc1ccc(N2CC(NC(=O)c3cc4ccccc4o3)CC2=O)cc1 (configuration not stated) | inactive | –
CCOC(=O)/C(C#N)=C/c1cn(CCC(=O)O)nc1-c1cccc(Br)c1 | inactive | –
O=C(NCCN1CCCCC1)c1ccc2c(c1)OCCO2 | inconclusive: 8.91 µM [activator, partial curve, poor fit] | –
CC(=O)c1cc(-c2ccccc2)n(CCC(=O)Nc2ccc(C)cc2C)c1C | inactive | –
CC(=O)c1cc(C(=O)N2CCCC(CCC(=O)N(C)CCc3ccccn3)C2)cs1 (configuration not stated) | inactive | –
CCOc1ccc(-c2nc(SCC(=O)NC3CCCC3)c(-c3ccccc3)[nH]2)cc1OC | inactive | –
CCc1ccccc1-n1ncc(C(=O)Nc2ccccc2OC)c1C | inconclusive: 35.5 µM [inhibitor, single point] | –
COc1ccc(-c2cnn3c(C)cc(C)nc23)cc1OC | inactive | –
CC(Sc1nnnn1C)C(=O)Nc1ccc2c(c1)OCCO2 (configuration not stated) | inconclusive: 35.5 µM [activator, single point] | –
COc1ccccc1-c1c(C)nn2c(N3CCCCCC3)cc(C)nc12 | inconclusive: 20.6 µM [inhibitor, single point] | –
COc1cccc(-c2nc(SCC(=O)NC3CCCC3)c(-c3ccccc3)[nH]2)c1 | inactive | –
CC(C)Oc1ccc(CNC(=O)CC(c2ccccc2)c2cc(Cl)ccc2O)cc1 (configuration not stated) | active: 7.3 µM | –
CCCn1c(SC(C)C(=O)NCC2CCCO2)nc2sc(CC)cc2c1=O (configuration not stated) | inactive | –
O=[N+]([O-])c1ccc(CN2CCOCCOCCOCC2)cc1 | inconclusive: 0.316 µM [inhibitor, partial curve, poor fit] | –
Cc1ccc(OCCC(=O)OCC(=O)NC2CCCC2)cc1 | inactive | –
O=[N+]([O-])c1c(Nc2ccccc2O)ccc2nonc12 | inactive | –
Cc1cc(Br)ccc1NC(=O)c1ccc(NS(=O)(=O)c2c(C)noc2C)cc1 | inconclusive: 35.5 µM [inhibitor, single point] | –
